Assay results: PubChem BioAssay AID180 (DTP/NCI, 2004)
The list is a part of this screen's results and no random one: it gathers tests that were run many times, whatever their T/C, doses with no T/C, and many T/C values between a quarter and a half above the control. Further doses and runs are listed elsewhere. T/C is the treated group as % of the vehicle group. Schedule codes are those of the source, taken here to give the interval after Q, in days (D) or hours (H), and the number of doses after X. Some T/C values carry the count of animals alive at the toxicity check (mostly the fifth day); where none is given, no animal had died by that day. Some entries were tested several times; their values stand side by side, smallest first. Additions like (4×) say how often a value occurs here. Some doses have a count of surviving animals in place of a T/C: the source files T/C as zero there, which appears to mark a toxic dose or a test without result, not a measured value. Survivors were counted at the toxicity check, usually on the fifth day, unless a day is given; later deaths do not show.

Test system: BDF1 mice, Adenocarcinoma 755 s.c., tumor weight T/C
Experiment: NCI In Vivo Anticancer Drug Screen. Data for tumor model Adenocarcinoma 755 (subcutaneous) in B6D2F1 (BDF1) mice
Settings: T/C endpoint: mean tumor weight, higher T/C = larger tumour; for T/C: evaluated on day 12
Procedure, shortened: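 In vivo antitumor screen on a transplantable tumor line. Result equals the measure in compound-treated animals divided by the same measure in vehicle controls.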

[1] = dose: 1.0 mg/kg/injection, schedule: Q01DX011 (ip), vehicle: methylcellulose (MC)
[2] = dose: 2.0 mg/kg/injection, schedule: Q01DX011 (ip), vehicle: methylcellulose (MC)
[3] = dose: 2.5 mg/kg/injection, schedule: Q01DX011 (ip), vehicle: methylcellulose (MC)
[4] = dose: 8.0 mg/kg/injection, schedule: Q01DX011 (ip), vehicle: saline
[5] = dose: 6.0 mg/kg/injection, schedule: Q01DX011 (ip), vehicle: carboxymethylcellulose (CMC)
[6] = dose: 300.0 mg/kg/injection, schedule: Q01DX011 (ip), vehicle: carboxymethylcellulose (CMC)
[7] = dose: 25.0 mg/kg/injection, schedule: Q01DX011 (ip), vehicle: carboxymethylcellulose (CMC)
[8] = dose: 100.0 mg/kg/injection, schedule: Q01DX011 (ip), vehicle: carboxymethylcellulose (CMC)
[9] = dose: 200.0 mg/kg/injection, schedule: Q01DX011 (ip), vehicle: carboxymethylcellulose (CMC)
[10] = dose: 400.0 mg/kg/injection, schedule: Q01DX011 (ip), vehicle: carboxymethylcellulose (CMC)
[11] = dose: 600.0 mg/kg/injection, schedule: Q01DX011 (ip), vehicle: carboxymethylcellulose (CMC)

Nc1nc(=S)c2[nH]cnc2[nH]1
T/C (dose: 0.05 mg/kg/injection, schedule: Q01DX011 (ip), vehicle: methylcellulose (MC)): 33, 48 [8 of 10 alive], 58, 59, 75 (2×), 76, 76 [9 of 10 alive], 77 [8 of 10 alive], 78, 81 [9 of 10 alive], 85 [9 of 10 alive], 104 % of control
T/C (dose: 0.1 mg/kg/injection, schedule: Q01DX011 (ip), vehicle: methylcellulose (MC)): 29 [9 of 10 alive], 39 [9 of 10 alive], 44 [9 of 10 alive], 47, 48, 48 [8 of 10 alive], 48 [9 of 10 alive], 49, 50, 55, 59, 61 [9 of 10 alive], 63 [9 of 10 alive] (2×), 67, 68 [9 of 10 alive], 69, 71, 74, 74 [9 of 10 alive], 98, 109, 120 % of control [9 of 10 alive]
T/C (dose: 0.5 mg/kg/injection, schedule: Q01DX011 (ip), vehicle: methylcellulose (MC)): 1 [9 of 10 alive], 2 (2×), 4, 4 [9 of 10 alive], 5 [8 of 10 alive], 7 (3×), 7 [8 of 10 alive], 7 [9 of 10 alive], 8 (2×), 10 [9 of 10 alive], 12, 12 [8 of 10 alive], 12 [9 of 10 alive], 13, 13 [8 of 10 alive], 15, 18 [9 of 10 alive], 19, 26 [9 of 10 alive], 36, 44 % of control [9 of 10 alive]
T/C [1]: 1, 2, 3 [8 of 10 alive], 3 [9 of 10 alive] (2×), 4 (3×), 5 (3×), 5 [9 of 10 alive], 6 (2×), 6 [7 of 10 alive], 6 [8 of 10 alive] (2×), 6 [9 of 10 alive] (2×), 7 [9 of 10 alive] (2×), 8, 11 [9 of 10 alive], 14 % of control
survivor count [1]: 6 of 10
survivor count (dose: 2.0 mg/kg/injection, schedule: Q01DX011 (ip), vehicle: carboxymethylcellulose (CMC)): 2 of 10
T/C [2]: 3 [8 of 10 alive] (2×), 4, 4 % of control [7 of 10 alive]
survivor count [2]: 2 of 10, 4 of 10, 6 of 10
T/C [3]: 1 [7 of 10 alive] (2×), 2, 2 [7 of 10 alive], 2 [8 of 10 alive], 2 [9 of 10 alive], 3 [7 of 10 alive], 7 % of control [8 of 10 alive]
survivor count [3]: 1 of 10, 2 of 10, 3 of 10, 4 of 10, 5 of 10, 5 of 9, 6 of 10
survivor count (dose: 4.0 mg/kg/injection, schedule: Q01DX011 (ip), vehicle: methylcellulose (MC)): 1 of 10
survivor count (dose: 4.0 mg/kg/injection, schedule: Q01DX011 (ip), vehicle: saline): 6 of 10
survivor count (dose: 5.0 mg/kg/injection, schedule: Q01DX011 (ip), vehicle: methylcellulose (MC)): 1 of 10, 2 of 10, 3 of 10, 4 of 10, 5 of 10
survivor count [4]: 6 of 10

CCCOP(=S)(N1CC1C)N1CC1(C)C (stereo unspecified)
T/C (dose: 0.75 mg/kg/injection, schedule: Q01DX011 (ip), vehicle: carboxymethylcellulose (CMC)): 141 and 149 % of control [9 of 10 alive]
T/C [5]: 45, 131, 144 % of control [8 of 10 alive]
survivor count [5]: 6 of 10

COC(=O)C1C(O)CCC2CN3CCc4c([nH]c5ccccc45)C3CC21 (stereo unspecified)
T/C (dose: 75.0 mg/kg/injection, schedule: Q01DX011 (ip), vehicle: carboxymethylcellulose (CMC)): 137 % of control
survivor count [6]: 0 of 10

CC(C)n1cnc2c(Cl)ncnc21
survivor count (dose: 250.0 mg/kg/injection, schedule: Q01DX011 (ip), vehicle: carboxymethylcellulose (CMC)): 4 of 10

CN(C)C1C(=O)C(C(=O)NCNC(CCS(C)=O)C(=O)O)=C(O)C2(O)C(=O)C3=C(O)c4c(O)cccc4C(C)(O)C3CC12 (stereo unspecified)
T/C (dose: 100.0 mg/kg/injection, schedule: Q01DX011 (ip), vehicle: saline): 143 % of control
survivor count (dose: 400.0 mg/kg/injection, schedule: Q01DX011 (ip), vehicle: saline): 6 of 10
survivor count (dose: 800.0 mg/kg/injection, schedule: Q01DX011 (ip), vehicle: saline): 0 of 10

Cn1c(=O)c2c(ncn2CCCO)n(C)c1=O
T/C [7]: 125 % of control [9 of 10 alive]

CCCCn1cnc2c(=O)[nH]cnc21
survivor count (dose: 1.8 mg/kg/injection, schedule: Q01DX011 (oral), vehicle: carboxymethylcellulose (CMC)): 6 of 10
survivor count (dose: 66.12 mg/kg/injection, schedule: Q01DX011 (ip), vehicle: carboxymethylcellulose (CMC)): 6 of 10
survivor count (dose: 529.0 mg/kg/injection, schedule: Q01DX011 (ip), vehicle: carboxymethylcellulose (CMC)): 1 of 10
survivor count (dose: 529.0 mg/kg/injection, schedule: Q01DX011 (ip), vehicle: other): 0 of 10
survivor count (dose: 1058.0 mg/kg/injection, schedule: Q01DX011 (oral), vehicle: carboxymethylcellulose (CMC)): 5 of 9

CCC1/C=C/C=C/CC(C)C(O)C(C)(O)C(=O)C(C)C(O)C(C)C(=O)C(C)C(O)C(C)/C=C/C(=O)OC2C(C)C(CC1)OC1(OC(CC(C)O)C(C)CC1=O)C2C (stereo unspecified) (tested in a mixture with another compound)
survivor count [4]: 1 of 10

CC(C)n1cnc2c(=S)nc[nH]c21
survivor count [8]: 6 of 10
survivor count [9]: 0 of 10
survivor count [10]: 0 of 10

[N-]=[N+]=C1C(=O)NC(=O)N2C3CC(O)C(COC12)O3 (stereo unspecified)
survivor count [11]: 0 of 10

[I][Hg][CH2]C1COCC([CH2][Hg][I])O1.[I][Hg][CH2]C1COCC([CH2][Hg][I])O1 (stereo unspecified)
survivor count (dose: 80.0 mg/kg/injection, schedule: Q01DX011 (ip), vehicle: other): 1 of 10

O=c1[nH]c(=O)c2n[nH]nc2[nH]1
survivor count (dose: 800.0 mg/kg/injection, schedule: Q01DX011 (ip), vehicle: methylcellulose (MC)): 3 of 10
survivor count (dose: 900.0 mg/kg/injection, schedule: Q01DX011 (ip), vehicle: methylcellulose (MC)): 1 of 10

COc1ccc(C2=NC(=O)NC2c2ccc(OC)cc2)cc1 (stereo unspecified)
survivor count (dose: 200.0 mg/kg/injection, schedule: Q01DX011 (ip), vehicle: saline): 1 of 10

CC(=O)OCC(=O)[C@@]1(O)CC[C@H]2[C@@H]3C[C@H](C)C4=CC(=O)C=C[C@]4(C)[C@@]3(F)[C@@H](O)C[C@@]21C
survivor count (dose: 18.0 mg/kg/injection, schedule: Q01DX011 (sc), vehicle: steroid suspending solution): 5 of 10
survivor count (dose: 40.0 mg/kg/injection, schedule: Q01DX011 (sc), vehicle: steroid suspending solution): 3 of 12
survivor count (dose: 80.0 mg/kg/injection, schedule: Q01DX011 (sc), vehicle: steroid suspending solution): 2 of 12
survivor count (dose: 150.0 mg/kg/injection, schedule: Q01DX011 (sc), vehicle: steroid suspending solution): 4 of 10

O=C(CCBr)NCCCNC(=O)CCBr
survivor count (dose: 225.0 mg/kg/injection, schedule: Q01DX011 (ip), vehicle: methylcellulose (MC)): 6 of 10

CN(C)[C@@H]1C(=O)C(C(=O)NCN(CCCl)CCCl)=C(O)[C@@]2(O)C(=O)C3=C(O)c4c(O)cccc4[C@@](C)(O)[C@H]3C[C@@H]12
T/C [1]: 134 % of control
T/C [3]: 125 % of control
survivor count (dose: 40.0 mg/kg/injection, schedule: Q01DX011 (ip), vehicle: methylcellulose (MC)): 5 of 10
survivor count (dose: 60.0 mg/kg/injection, schedule: Q01DX011 (ip), vehicle: saline): 5 of 10
survivor count (dose: 80.0 mg/kg/injection, schedule: Q01DX011 (ip), vehicle: methylcellulose (MC)): 0 of 10

CCOc1ccc2nc(S(N)(=O)=O)sc2c1
survivor count [9]: 5 of 10
survivor count (dose: 200.0 mg/kg/injection, schedule: Q01DX011 (ip), vehicle: methylcellulose (MC)): 5 of 10
survivor count [6]: 4 of 10
survivor count [10]: 1 of 10
survivor count [11]: 0 of 10

Nc1nc(=S)c2ncn(C3OC(COC(=O)c4ccc([N+](=O)[O-])cc4)C(OC(=O)c4ccc([N+](=O)[O-])cc4)C3OC(=O)c3ccc([N+](=O)[O-])cc3)c2[nH]1 (stereo unspecified)
survivor count [7]: 0 of 10
survivor count (dose: 50.0 mg/kg/injection, schedule: Q01DX011 (ip), vehicle: carboxymethylcellulose (CMC)): 0 of 10

CCCCOC(=O)C1(N)CCCC1
survivor count [8]: 4 of 10
